According to patent US20250057791A1, “PROTECTION AGAINST ARTHROPOD PARASITES WITH PURINERGIC RECEPTOR (OPR) ANTAGONISTS” (priority 2021, published 2025):
At least one compound was matched to its structure with a doubt left.

Legend:
[1] = tested on: A. stephensi; experiment: Membrane feeding assay, A. stephensi; type: in vivo, Anopheles stephensi; settings: doses as in Table 8
Description: (§1) Experiments with A. gambiae and A. stephensi were made in a climate chamber at 28° C. and 80% RH during the last 6 hours of scotophase. As a sugar meal can interfere with the blood meal by reducing the number of females that feed, the sucrose solution supplied in rearing cages to mosquitoes employed for feeding experiments was reduced to 5%. […] The 5% sucrose solution was presented to mosquitoes from emergence on four 1 cm diam. cotton dental rolls (Hartmann A G, Neuhausen, Switzerland) inserted in 10 ml upturned glass vials placed in holes at each corner of the rearing cage ceiling. Cotton rolls were turned daily in vials and renewed every two days. Mosquitoes were not fed blood and were deprived of sucrose 17 to 20 hours before experiments. […]
(§2) All compounds were tested in a mosquito feeding solution (FS) consisting of 25 mM dextrose, 25 mM NaCl buffered with 8.93 mM NaHCO3 adjusted to pH 7.4. […] These positive and negative controls permitted to monitor any effect of experimental day on feeding responses as a function of dose for antagonists that were recorded over several days. […]

[2] = tested on: A. gambiae; experiment: Membrane feeding assay, A. gambiae; type: in vivo, Anopheles gambiae; settings: 20 μM ATP; CPT at 10 μM
Description: as §1, §2

## Cc1ccc(C(=O)Nc2ccc(S(=O)(=O)O)c3cc(S(=O)(=O)O)cc(S(=O)(=O)O)c23)cc1NC(=O)c1cccc(NC(=O)Nc2cccc(C(=O)Nc3cc(C(=O)Nc4ccc(S(=O)(=O)O)c5cc(S(=O)(=O)O)cc(S(=O)(=O)O)c45)ccc3C)c2)c1 [Suramin]
[1]
  effect on feeding on solution containing ATP, in words: inhibited feeding
[2]
  effect on feeding on solution containing ATP, in words: inhibited feeding
